PubChem BioAssay AID652272 – Drosophila RNAi Screening Center – 2013

- Assay: 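Genome-wide knock-down search for components of Hedgehog signalling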 (primary screen)
- Cell system: Drosophila clone 8 (Cl8) cells
- Knock-down reagent: long dsRNA against Drosophila genes
- Measurement: 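Plate reader light from a firefly reporter under a ptc promoter fragment that responds to Hedgehog, with Renilla light as transfection reference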
- Scale: firefly Hh reporter signal: higher = more ptc reporter light; Renilla reference signal: higher = more Renilla control light
- Rule for the call: 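Hit when the z-score averaged over two replicates is under -2 or over +3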
- Calls: active = hit: reporter lowered or raised; inactive = not a hit
The deposit covers about 21,000 reagents; this is a random part of those with a known target gene and a result. Over the whole deposit, 503 (2.4%) were called active. 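Raw plate light values, not normalised; calls rest on replicate z-scores that were not deposited; hits include reporter decreases as well as increases.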 Unmarked entries are inactive. Not stated in the record: the amount of reagent, the time to read-out.

After knock-down of CG8155 [DRSC07084], the record shows firefly Hh reporter signal, replicate 1 = 1.36e5; firefly Hh reporter signal, replicate 2 = 1.31e5; Renilla reference signal, replicate 1 = 5728; Renilla reference signal, replicate 2 = 4944.
Against CG14126 (retired record) [DRSC10130], the entry reads firefly Hh reporter signal, replicate 1 = 45761; firefly Hh reporter signal, replicate 2 = 55671; firefly Hh reporter signal, replicate 3 = 69778; Renilla reference signal, replicate 1 = 4483; Renilla reference signal, replicate 2 = 5004.
For trx (trithorax) [DRSC17089] the deposit lists firefly Hh reporter signal, replicate 1 = 1.33e5; firefly Hh reporter signal, replicate 2 = 95320; Renilla reference signal, replicate 1 = 4201; Renilla reference signal, replicate 2 = 2922.
Depletion of CG11999 [DRSC12185] gave: firefly Hh reporter signal, replicate 1 = 64999; firefly Hh reporter signal, replicate 2 = 1.17e5; Renilla reference signal, replicate 1 = 3430; Renilla reference signal, replicate 2 = 3606.
With knock-down of RN-tre (Related to the N terminus of tre oncogene) [DRSC07521] the results were firefly Hh reporter signal, replicate 1 = 1.32e5; firefly Hh reporter signal, replicate 2 = 86455; Renilla reference signal, replicate 1 = 3059; Renilla reference signal, replicate 2 = 6091.
Against fj (four-jointed) [DRSC07619], the values are firefly Hh reporter signal, replicate 1 = 75002; firefly Hh reporter signal, replicate 2 = 50307; Renilla reference signal, replicate 1 = 1856; Renilla reference signal, replicate 2 = 3541.
Knock-down of CG43234 (retired record) [DRSC01786] came out at: firefly Hh reporter signal, replicate 1 = 1.22e5; firefly Hh reporter signal, replicate 2 = 2.23e5; Renilla reference signal, replicate 1 = 3649; Renilla reference signal, replicate 2 = 9237.
For CG8298 [DRSC07138], the values are firefly Hh reporter signal, replicate 1 = 81286; firefly Hh reporter signal, replicate 2 = 46786; Renilla reference signal, replicate 1 = 1706; Renilla reference signal, replicate 2 = 3921.
Against Lis-1 (Lissencephaly-1) [DRSC07459], the values are firefly Hh reporter signal, replicate 1 = 1.14e5; firefly Hh reporter signal, replicate 2 = 46791; Renilla reference signal, replicate 1 = 2938; Renilla reference signal, replicate 2 = 3320.
After knock-down of Rsph4a (Radial spoke head protein 4a) [DRSC04338], the screen gave firefly Hh reporter signal, replicate 1 = 1.78e5; firefly Hh reporter signal, replicate 2 = 1.02e5; Renilla reference signal, replicate 1 = 7281; Renilla reference signal, replicate 2 = 4387.
After knock-down of CG9673 [DRSC20202], the record shows firefly Hh reporter signal, replicate 1 = 71581; firefly Hh reporter signal, replicate 2 = 2.99e5; Renilla reference signal, replicate 1 = 1705; Renilla reference signal, replicate 2 = 12390.
Depletion of smg (smaug) [DRSC11397] resulted in: firefly Hh reporter signal, replicate 1 = 85168; firefly Hh reporter signal, replicate 2 = 27847; Renilla reference signal, replicate 1 = 3801; Renilla reference signal, replicate 2 = 1269.

As entered above.
Result for Lis-1 (Lissencephaly-1) [DRSC07459] under “firefly Hh reporter signal, replicate 1”: 1.14e5
Under “firefly Hh reporter signal, replicate 1”, CG9673 [DRSC20202] has 71581
